The results in this text go back to paper PMC5562305, “Impact of novel palmitoylated prolactin-releasing peptide analogs on metabolic changes in mice with diet-induced obesity” (PLoS ONE, 2017).

Starred links: 1 amine or outer side, 2 acyl side, 3 side chain; linkers in the order of their positions; H or OH if unused. Residues, ends and D or L forms follow the SMILES beside them. Groups on a side chain read outwards from the residue. *: point of attachment. TTDA(Palmitoyl) = CCCCCCCCCCCCCCCC(=O)NCCCOCCOCCOCCCN*; γGlu = O=C(O)[C@H](CCC(=O)[*:2])N[*:1]; Palmitoyl = CCCCCCCCCCCCCCCC(=O)*; Suc = O=C(CCC(=O)[*:2])[*:1]

The series has as its system urinary metabolites. Kind of series: NMR-based metabolomics of urine of DIO mice. The conditions noted are these: 2-week treatment, vs HF diet-fed saline group, in words. The format is in vivo, C57BL/6 mice. How it is done: Urine samples for NMR-based metabolomics were collected prior to the start of the interventions and at the end of the experiment. For overnight urine collection (from 5 pm to 8 am), the mice were housed in individual metabolic cages (Tecniplast, Buguggiate, Italy) without access to food. Samples were collected with the addition of NaN3 and stored at -80°C until NMR analysis.
The urine samples were thawed at room temperature and centrifuged at 13 684 x g for 5 min prior to the NMR experiments. A 200-μl aliquot of supernatant was diluted with 340 μl of H2O mixed with 60 μl of phosphate buffer (1.5 M KH2PO4 in D2O containing 2 mM NaN3 and 0.1% trimethylsilyl propionic acid (TSP), pH 7.4) and transferred to a 5-mm NMR tube. The NMR data were acquired with a 600 MHz Bruker Avance III spectrometer (Bruker BioSpin, Rheinstetten, Germany) equipped with a 5-mm TCI cryogenic probe head. All of the experiments were performed at 300 K. Automatic tuning, matching, shimming and adjusting of the 90° pulse length were performed for each sample.
As mouse urine naturally contains urinary proteins, the NMR spectra were acquired using a Carr-Purcell-Meiboom-Gill (CPMG) pulse sequence with water presaturation (Bruker pulse sequence cpmgpr1d) to eliminate the strong protein background. […] For better metabolite identification, a short J-resolved experiment with presaturation (NS = 2, SW = 16 ppm, TD = 8k, number of increments = 40, SW = 78.125 Hz in the indirect dimension, and relaxation delay = 2 s) was executed for all samples. Additional two-dimensional ^1H-^1H correlation spectroscopy (COSY) and ^1H-^13C heteronuclear multiple-quantum correlation (HMQC) experiments (Bruker pulse sequences cosygpprqf and hmqcphpr) were performed for selected samples.
The acquired data were processed using Topspin 3.2 software (Bruker BioSpin, Rheinstetten, Germany). Line broadening of 0.3 Hz was applied on free induction decays (FIDs) prior to Fourier transformation. The spectra were automatically phased, baseline corrected and referenced to the signal of TSP (0.00 ppm).
The assignment of individual metabolites was achieved by comparing the proton spectra with the spectra of pure metabolites using Chenomx NMR Suite 7.6 (Chenomx Inc., Edmonton, AB, Canada), the HMDB database and previously published metabolomic data. The identification of metabolites was supported through J-resolved and COSY experiments and, if possible, confirmed using carbon chemical shifts extracted from the HMQC spectra.
For quantitation of individual metabolites, the CPMG spectra were uniformly binned in the range of 0.10–10.00 ppm to 0.01-ppm intervals using AMIX software (Bruker BioSpin, Rheinstetten, Germany). This procedure reduced the dimensionality of the data, eliminated chemical shift variations and thus simplified the reproducible automatic quantification. Regions corresponding to water (4.60–4.90 ppm) and urea (5.60–6.00 ppm) were removed prior to analysis. As the dilutions of the original urine samples differed (due to the differences in water intake during urine collection), all of the spectra were normalized to the total spectral area (TSA). For each identified metabolite, one representative signal was chosen and then quantified as the sum of appropriate adjacent 0.01-ppm bins to cover the whole signal width. The metabolite concentration was expressed as the TSA-normalized intensity of the respective signal. For selection of an appropriate statistical method (parametric or non-parametric) the Lilliefors test of normality was performed. […] Metabolite alterations with a P < 0.05 were considered statistically significant. Statistical analysis was performed using Matlab software (“MATLAB version 8.6 (R2015b). Natick, Massachusetts: The MathWorks Inc., 2015.,” n.d.). […]

As for `CCCCCCCCCCCCCCCC(=O)N[C@@H](CCC(=O)NCCCC[C@H](NC(=O)[C@@H](NC(=O)[C@H](CCC(=O)O)NC(=O)[C@H](CCSC)NC(=O)[C@H](CO)NC(=O)[C@H](Cc1c[nH]cn1)NC(=O)[C@H](CCCNC(=N)N)NC(=O)[C@H](Cc1c[nH]cn1)NC(=O)[C@@H](NC(=O)[C@H](CCCNC(=N)N)NC(=O)[C@@H](N)CO)[C@@H](C)O)[C@@H](C)CC)C(=O)N[C@H](C(=O)N1CCC[C@H]1C(=O)N[C@@H](CC(=O)O)C(=O)N[C@H](C(=O)N[C@@H](CC(N)=O)C(=O)N1CCC[C@H]1C(=O)N[C@@H](C)C(=O)N[C@@H](Cc1c[nH]c2ccccc12)C(=O)N[C@@H](Cc1ccc(O)cc1)C(=O)N[C@@H](C)C(=O)N[C@@H](CO)C(=O)N[C@@H](CCCNC(=N)N)C(=O)NCC(=O)N[C@H](C(=O)N[C@@H](CCCNC(=N)N)C(=O)N1CCC[C@H]1C(=O)N[C@H](C(=O)NCC(=O)N[C@@H](CCCNC(=N)N)C(=O)N[C@@H](Cc1ccccc1)C(N)=O)C(C)C)[C@@H](C)CC)[C@@H](C)CC)[C@@H](C)O)C(=O)O` [analog 1] (H-SRTHRHSMEIK([γGlu-Palmitoyl])TPDINPAWYASRGIRPVGRF-NH2; N-terminus assumed), the “Urinary concentration of allantoin” value is listed as “no impact”, the “Urinary concentration of creatinine” value was “significant increase”, the “Urinary concentration of dimethylamine” value is on record as “no impact” and the “Urinary concentration of phenylacetylglycine (PAG)” value (from here on “Urinary concentration … (PAG)”) is listed as “no impact”. The Urinary glucose level entry is recorded as “significant reduction”, the “Urinary level of 1-methylnicotinamide (MNA)” value (“Urinary level … (MNA)” below) is reported as “attenuated”, the “Urinary level of N-methyl-2-pyridone-5-carboxamide (2-PY)” value (“Urinary level … (2-PY)” for short) is reported as “attenuated” and the “Urinary level of N-methyl-4-pyridone-3-carboxamide (4-PY)” value (“Urinary level … (4-PY)” for short) is listed as “attenuated”. Moreover, the “Urinary signals at 0.85-0.91 ppm (hexanoylglycine and SCFA derivatives)” value was “increase was significant”; the Urinary taurine concentration result was “significantly attenuated”.
On to `CCCCCCCCCCCCCCCC(=O)NCCCOCCOCCOCCCNC(=O)CCC(=O)NCCCC[C@H](NC(=O)[C@@H](NC(=O)[C@H](CCC(=O)O)NC(=O)[C@H](CCSC)NC(=O)[C@H](CO)NC(=O)[C@H](Cc1c[nH]cn1)NC(=O)[C@H](CCCNC(=N)N)NC(=O)[C@H](Cc1c[nH]cn1)NC(=O)[C@@H](NC(=O)[C@H](CCCNC(=N)N)NC(=O)[C@@H](N)CO)[C@@H](C)O)[C@@H](C)CC)C(=O)N[C@H](C(=O)N1CCC[C@H]1C(=O)N[C@@H](CC(=O)O)C(=O)N[C@H](C(=O)N[C@@H](CC(N)=O)C(=O)N1CCC[C@H]1C(=O)N[C@@H](C)C(=O)N[C@@H](Cc1c[nH]c2ccccc12)C(=O)N[C@@H](Cc1ccc(O)cc1)C(=O)N[C@@H](C)C(=O)N[C@@H](CO)C(=O)N[C@@H](CCCNC(=N)N)C(=O)NCC(=O)N[C@H](C(=O)N[C@@H](CCCNC(=N)N)C(=O)N1CCC[C@H]1C(=O)N[C@H](C(=O)NCC(=O)N[C@@H](CCCNC(=N)N)C(=O)N[C@@H](Cc1ccccc1)C(N)=O)C(C)C)[C@@H](C)CC)[C@@H](C)CC)[C@@H](C)O` [analog 2] (H-SRTHRHSMEIK([Suc-TTDA(Palmitoyl)])TPDINPAWYASRGIRPVGRF-NH2; N-terminus assumed), for which the “Urinary concentration of allantoin” value is given as “no impact”, the “Urinary concentration of dimethylamine” value is recorded as “no impact”, the “Urinary concentration … (PAG)” value was “no impact” and the “Urinary level … (MNA)” value is reported as “attenuated”. The “Urinary level … (2-PY)” value is listed as “attenuated” and the “Urinary level … (4-PY)” value is on record as “attenuated”.
On to `CCCCCCCCCCCCCCCC(=O)NCCCOCCOCCOCCCNC(=O)CCC(=O)NCCCC[C@H](NC(=O)[C@@H](NC(=O)[C@H](CCC(=O)O)NC(=O)[C@H](CCSC)NC(=O)[C@H](CO)NC(=O)[C@H](Cc1c[nH]cn1)NC(=O)[C@H](CCCNC(=N)N)NC(=O)[C@H](Cc1c[nH]cn1)NC(=O)[C@@H](NC(=O)[C@H](CCCNC(=N)N)NC(=O)[C@H](CO)NC(=O)CCC(=O)NCCCOCCOCCOCCCNC(=O)CCCCCCCCCCCCCCC)[C@@H](C)O)[C@@H](C)CC)C(=O)N[C@H](C(=O)N1CCC[C@H]1C(=O)N[C@@H](CC(=O)O)C(=O)N[C@H](C(=O)N[C@@H](CC(N)=O)C(=O)N1CCC[C@H]1C(=O)N[C@@H](C)C(=O)N[C@@H](Cc1c[nH]c2ccccc12)C(=O)N[C@@H](Cc1ccc(O)cc1)C(=O)N[C@@H](C)C(=O)N[C@@H](CO)C(=O)N[C@@H](CCCNC(=N)N)C(=O)NCC(=O)N[C@H](C(=O)N[C@@H](CCCNC(=N)N)C(=O)N1CCC[C@H]1C(=O)N[C@H](C(=O)NCC(=O)N[C@@H](CCCNC(=N)N)C(=O)N[C@@H](Cc1ccccc1)C(N)=O)C(C)C)[C@@H](C)CC)[C@@H](C)CC)[C@@H](C)O` [analog 3] ({TTDA(Palmitoyl)-Suc}-SRTHRHSMEIK([Suc-TTDA(Palmitoyl)])TPDINPAWYASRGIRPVGRF-NH2), for which the “Urinary concentration of allantoin” value was “growing concentrations”, the “Urinary concentration of dimethylamine” value is recorded as “growing concentrations”, the “Urinary concentration … (PAG)” value is “growing concentrations” and the Urinary glucose level entry was “significant reduction”. Further, the “Urinary level … (MNA)” value is recorded as “did not influence”; the “Urinary level … (2-PY)” value was “did not influence”; the “Urinary level … (4-PY)” value is given as “raised”; the “Urinary signals at 0.85-0.91 ppm (hexanoylglycine and SCFA derivatives)” value is “increase was significant”.
